PubChem BioAssay AID1259424 | University of Nebraska Medical Center – 2018

- Screen: 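Seek colon cancer survival genes behaving like KSR1, using a six-gene signature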 (primary screen)
- System: human HCT116 colon cancer cells
- Knock-down reagent: siRNA pool against human genes, 50 nM
- Measured: 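Log2 levels of six mRNAs (branched-DNA multiplex), adjusted by two reference genes and the non-targeting median, then scored against the average KSR1 knockdown pattern as Pearson r and euclidean distance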
- Scale: mean correlation with KSR1 profile: higher = expression change more like KSR1 knockdown; mean distance from KSR1 profile: higher = expression change less like KSR1 knockdown
The deposit covers about 14,000 reagents; below is an unselected part. 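Higher correlation or smaller distance means closer resemblance to KSR1 loss; control wells, including KSR1 knockdowns, recur on many plates.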 Not all columns of the deposit are shown. Not given: the time to read-out.

gene | mean correlation with KSR1 profile | mean distance from KSR1 profile
SMARCA1 | 0.0875 | 2.28
EFTUD2 | -0.479 | 2.26
SH3BGRL3 | -0.146 | 4.83
LAT2 | -0.456 | 4.01
SIX6 | 0.483 | 1.92
SYT4 | -0.683 | 1.28
GALNT10 | -0.452 | 5.23
PTPN1 | -0.283 | 1.9
TMEM123 | -0.428 | 2.14
KRTAP1-5 | 0.66 | 2.64
KYNU | 0.0185 | 1.16
NR1H2 | -0.855 | 1.31
CALM3 | -0.0361 | 3.57
ERMP1 | 0.636 | 1.37
UBE2D4 | 0.567 | 0.787
CAPN7 | -0.602 | 1.45
ZNF672 | -0.223 | 5.44
FGB | -0.409 | 2.05
STC2 | 0.323 | 3.18
DEPDC1 | -0.256 | 3.08
SINHCAF | -0.57 | 1.45
TFRC | 0.0515 | 4.88
PPIC | -0.382 | 1.73
NLRP9 | -0.509 | 1.97
IFNAR1 | -0.0235 | 2.29
MPDU1 | -0.196 | 4.2
LAMC3 | 0.386 | 1.34
ANGPTL4 | -0.173 | 1.47
ZNF185 | -0.0259 | 4
MYL6 | -0.562 | 3.36
SERF1A | 0.159 | 2.92
BAIAP2L2 | -0.381 | 2.95
CHST4 | -0.218 | 2.59
DPF2 | 0.0301 | 1.54
KRT33B | -0.632 | 2.69
NDUFAF7 | 0.459 | 1.27
CATSPERG | -0.183 | 3.34
TSPAN5 | -0.532 | 2.87
KCND1 | -0.529 | 1.73
FBXL15 | 0.675 | 2.56
S100A10 | -0.78 | 2.66
TACSTD2 | -0.473 | 2.35
SFRP2 | 0.394 | 4.92
PIN1 | 0.139 | 2.55
UBA2 | -0.274 | 2.54
KRTAP9-3 | 0.819 | 1.25
GPER1 | -0.171 | 2.41
ECHDC3 | 0.732 | 1.5
AKR7A2 | -0.0621 | 2.33
KRTAP1-3 | 0.559 | 2.29

4 successive reagents from above, for reference:
gene | mean correlation with KSR1 profile | mean distance from KSR1 profile
KYNU | 0.0185 | 1.16
NR1H2 | -0.855 | 1.31
CALM3 | -0.0361 | 3.57
ERMP1 | 0.636 | 1.37
